Data taken from patent US11517587B2, “Drug therapy to inhibit chemotherapy-induced adverse effects and related pharmaceutical compositions, diagnostics, screening techniques and kits” (YALE UNIVERSITY, priority 2011, dated 2022).
At least one compound was matched to its structure with a doubt left.

Columns and labels:
microtubule assembly = assay: Microtubule assembly; type: biochemical
Method: FIG. 5: Paclitaxel speeds up microtubule assembly.
The relative effects of paclitaxel-LiCl and paclitaxel-AV411 co-administration on microtubule assembly were also determined.

SHSY-5Y cells = assay: Intracellular Ca2+ signal in stimulated SHSY-5Y cells; type: cell-based; settings: 1 uM AV411 added during taxol treatment (800 ng/mL, 6 hours); 1 uM ATP
Method: FIG. 2A: Protection of the intracellular calcium signal by 1 uM AV411. […] After 200 seconds thapsigargin (TG, an inhibitor of the intracellular Ca^2+ pump) was added to indicate that the intracellular stores were filled and the cells were viable (second arrow). […] Each line represents the average of at least 45 cells (at least 15 cells measured in three separate experiments).
FIG. 2B: Protection of the intracellular calcium signal by 500 uM LiCl. Representative Ca^2+ responses of SHSY-5Y cells stimulated with 200 nM carbachol (at first arrow) to induce a transient release of Ca^2+ from intracellular stores. After 200 seconds thapsigargin (TG, an inhibitor of the intracellular Ca^2+ pump) was added to indicate that the intracellular stores were filled and the cells were viable (second arrow). […] Addition of 500 uM LiCl alone (pink trace)induced a small decrease in the Ca^2+ transient. […] Each line represents the average of at least 45 cells (at least 15 cells measured in three separate experiments. […]
[…] Each line represents the average of at least 45 cells (at least 15 cells measured in three separate experiments).
Intracellular Ca^2+ signals monitored in intact cells were also found to be reduced by treatment with Taxol for 6 hours (FIGS. 2B and 3B; compare control treatment (black trace) with Taxol treatment (blue trace) in both figures).

mice [1] = assay: Paclitaxel-induced neuropathy in mice (time on rotarod); type: in vivo; settings: 4 injections
calpain = assay: Calpain activity after low dose paclitaxel; type: in vivo, mice; settings: lithium treatment with low dose paclitaxel
Text: FIG. 3: Low dose paclitaxel increases calpain activity. Lithium treatment prevents activation of calpain.

calcium release = assay: Calcium release after low dose paclitaxel; type: in vivo, mice; settings: lithium treatment with low dose paclitaxel
Text: FIG. 11: Low dose paclitaxel decreases calcium release Lithium treatment prevents loss of calcium release.

mice [2] = assay: Paclitaxel-induced myelin damage in mice; type: in vivo; settings: lithium co-therapy with paclitaxel
mice [3] = assay: Echocardiograms of mice injected with taxol; type: in vivo; settings: lithium pre-treatment before taxol
Text: FIG. 5B: The bottom three panels of the figure attached, is from echocardiograms done on mice injected with taxol. These are the same mice for which the xenograph study was done (shown at the top of the figure). […] These are both measurements of contractility. […] Heart rate was not altered.
Taxol causes cardiac arrhythmias. […] The recent data shown in the bottom three panels of the FIG. 5B, is information compiled from echocardiograms done on mice injected with taxol. These are the same mice upon which the xenograph study was done (shown at the top of the figure). […] These are both measurements of contractility, which was reversed by lithium pre-treatment. […] Heart rate was not altered. The cardiologist who performed the experiment at the request of the inventor(s) was quite impressed and is considering studies in human patients. There are studies in the literature showing that chemotherapy induced changes acutely in contractility can develop into long term heart rhythm problems.

[4] = tested on: calcium signaling in cells; assay: Protection of calcium signaling by combination treatment / calpastatin expression; type: cell-based; settings: combination treatment with Li and calpastatin (expression of calpastatin in cells)
Text: FIG. 7: Combination treatment protects calcium signaling.
FIG. 8: Expression of calpastatin, a natural calpain antagonist, protects calcium signaling in cells.

NCS-1 = NCS-1 levels in peripheral nerve and brain after low dose paclitaxel; type: in vivo, mice; settings: lithium with low dose paclitaxel
Text: FIG. 12: Low dose paclitaxel decreases NCS-1 levels in peripheral nerve, but not brain NCS-1 expression is maintained with lithium.

| SMILES | Microtubule assembly (microtubule assembly) | Ca2+ response (SHSY-5Y cells) | Protection from neuropathy (mice [1]; ibudilast 10 mg/kg ip 1 hour prior to paclitaxel 4.5 mg/kg ip) | Calpain activity (calpain) | Calcium release (calcium release) | Protection from paclitaxel-induced damage (myelin) (mice [2]) | End diastolic diameter and fractional shortening (contractility) (mice [3]) | Protection from neuropathy (time on rotarod) (mice [1]; lithium 12.8 mg/kg ip 1 hour prior to paclitaxel 4.5 mg/kg ip) | Calcium signaling [4] | NCS-1 expression (NCS-1) |
| --- | --- | --- | --- | --- | --- | --- | --- | --- | --- | --- |
| CC(C)C(=O)c1c(C(C)C)nn2ccccc12 [AV411, ibudilast] | neither lithium nor ibudilast alter microtubule assembly | prevented the reduction in signaling | protected mice from developing neuropathy |  |  |  |  |  |  |  |
| [Li] [lithium] | neither lithium nor ibudilast alter microtubule assembly |  |  | prevent activation of calpain | prevented loss of calcium release | protected the mice from paclitaxel-induced damage | returns the values to control levels | protects mice from developing neuropathy | protected calcium signaling | NCS-1 expression was maintained |
